Numbering of substitutions follows the chain as printed. These are yes or no findings as the source states them, for the method shown. Some entries that bind do so weakly or less than the wild type.
T1: human CD19 expressed on LO68 tumor cells (human, UniProt P15391 20-556)
T1 construct: whole, on cells; also called CD19+ LO68 tumor cells; CD19-engineered LO68 tumor cells
T1 sequence (looked up): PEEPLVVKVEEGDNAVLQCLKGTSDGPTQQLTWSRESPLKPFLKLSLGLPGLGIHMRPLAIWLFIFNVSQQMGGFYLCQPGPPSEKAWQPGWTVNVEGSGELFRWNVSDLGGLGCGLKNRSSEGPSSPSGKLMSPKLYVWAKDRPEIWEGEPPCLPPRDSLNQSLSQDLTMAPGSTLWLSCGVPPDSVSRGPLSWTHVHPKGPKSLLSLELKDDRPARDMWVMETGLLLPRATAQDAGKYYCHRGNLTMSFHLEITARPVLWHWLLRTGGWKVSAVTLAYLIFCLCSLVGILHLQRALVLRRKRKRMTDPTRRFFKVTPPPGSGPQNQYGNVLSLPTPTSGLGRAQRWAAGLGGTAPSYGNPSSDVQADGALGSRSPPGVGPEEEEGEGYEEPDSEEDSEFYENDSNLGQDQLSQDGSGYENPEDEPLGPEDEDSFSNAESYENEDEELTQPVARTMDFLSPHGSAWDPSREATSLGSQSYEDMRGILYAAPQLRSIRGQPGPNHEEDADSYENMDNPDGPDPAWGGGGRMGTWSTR

B1: Y05 second generation CAR (F-2 with the fifth tyrosine of FMC63 VH CDR3 substituted by alanine), expressed on human T cells (protein)
chain: DIQMTQTTSSLSASLGDRVTISCRASQDISKYLNWYQQKPDGTVKLLIYHTSRLHSGVPSRFSGSGSGTDYSLTISNLEQEDIATYFCQQGNTLPYTFGGGTKLEITGGGGSGGGGSGGGGSEVKLQESGPGLVAPSQSLSVTCTVSGVSLPDYGVSWIRQPPRKGLEWLGVIWGSETTYYNSALKSRLTIIKDNSKSQVFLKMNSLQTDDTAIYYCAKHYYYGGSYAMDAWGQGTSVTVSSAAAIEVEQKLISEEDLLDNEKSNGTIIHVKGKHLCPSPLFPGPSKPFWVLVVVGGVLACYSLLVTVAFIIFWVRSKRSRLLHSDYMNMTPRRPGPTRKHYQPYAPPRDFAAYRSRVKFSRSADAPAYQQGQNQLYNELNLGRREEYDVLDKRRGRDPEMGGKPRRKNPQEGLYNELQKDKMAEAYSEIGMKGERRRGKGHDGLYQGLSTATKDTYDALHMQALPPR
B2: G02 second generation CAR (F-2 with the second glycine of FMC63 VH CDR3 substituted by alanine), expressed on human T cells (other)
chain: B1 chain with G225A, A231Y
notes: CAR on transduced human T cells; also called FMC63(G02)
B3: Y04 second generation CAR (F-2 with the fourth tyrosine of FMC63 VH CDR3 substituted by alanine), expressed on human T cells (other)
chain: B1 chain with Y227A, A231Y
notes: CAR on transduced human T cells; also called FMC63(Y04)
B4: Y03 second generation CAR (F-2 with the third tyrosine of FMC63 VH CDR3 substituted by alanine), expressed on human T cells (other)
chain: B1 chain with Y223A, A231Y
notes: CAR on transduced human T cells; also called FMC63(Y03)
B5: Y01 second generation CAR (F-2 with the first tyrosine of FMC63 VH CDR3 substituted by alanine), expressed on human T cells (other)
chain: B1 chain with Y221A, A231Y
notes: CAR on transduced human T cells; also called FMC63(Y01)

biological target: T1, human CD19 expressed on LO68 tumor cells; experiment: z-Movi microfluidic chip, CAR T cells on a monolayer of CD19+ LO68 tumor cells, force ramp, percent bound T cells
Method: CD19-engineered LO68 tumor cells were seeded in a z-Movi microfluidic chip and cultured for 16 hours. The next day, flow sorted CAR-T cells were serially flowed in the chips and incubated with the target cells for 5 minutes prior to initializing a 3-minute linear force ramp. Cell detachment was determined using post-experiment using image analysis techniques.
Increasing fluidic force was applied and the percentage of bound T-cells was determined (median, n=3). […] Data are presented as median rForce which is the relative force required to elicit cell detachment, calibrated to […] polystyrene beads. Since data were not normally distributed, they are presented as median rForce which is the relative force required to elicit cell detachment and calibrated to […] polystyrene beads. […] Data shown are mean±standard error (n=11 runs, 3 independent donors). […] For clarity, a single representative run for one healthy donor is plotted in which each dot represents a single cell.

binding	Binder
binds	B1

biological target: soluble CD19-Fc fusion protein (UniProt P15391); experiment: flow cytometry, CAR T cells incubated with soluble CD19-Fc (0.5 and 1.0 ug), anti-human IgG detection

binding	Binder
binds	B2
binds	B1
binds	B3

biological target: soluble CD19-Fc fusion protein (UniProt P15391); experiment: flow cytometry, transduced T cells incubated with CD19-Fc (0.5 and 1.0 ug), PE-conjugated anti-human IgG

binding	Binder
binds	B2
binds	B1
binds	B4
binds	B5
binds	B3
